Reference: paper PMC4824347
No constants are given. Whether binding was seen depends on the method and setting. In cells and extracts the contact can be indirect. Some results given as binding are weak or reduced against the parent protein; the word gives no strength. Where a sequence is shown, tags or fusion partners need not be part of it.

Biological target: T1, Strep-tag-Chs2-215-629 (budding yeast) (UniProt P14180)
T1 sequence: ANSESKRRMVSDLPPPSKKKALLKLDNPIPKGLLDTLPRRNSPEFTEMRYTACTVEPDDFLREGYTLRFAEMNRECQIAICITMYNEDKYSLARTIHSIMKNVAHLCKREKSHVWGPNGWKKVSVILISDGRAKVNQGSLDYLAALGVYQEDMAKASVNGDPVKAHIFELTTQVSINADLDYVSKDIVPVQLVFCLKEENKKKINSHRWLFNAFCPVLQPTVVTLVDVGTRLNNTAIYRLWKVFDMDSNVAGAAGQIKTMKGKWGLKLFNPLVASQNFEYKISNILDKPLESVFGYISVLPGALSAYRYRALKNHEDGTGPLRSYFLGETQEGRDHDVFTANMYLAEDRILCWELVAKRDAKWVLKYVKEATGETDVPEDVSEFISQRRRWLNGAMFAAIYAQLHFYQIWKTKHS
Test: pull-down; pairs of IPTG-induced E. coli cultures expressing the two tagged proteins were mixed and putative complexes purified following the scheme in S1A; final purified fractions analysed by SDS-PAGE and immunoblotting with anti-Streptag or anti-His antibodies

B1: 6His-tagged-Inn1-C2 (domain or fragment, UniProt P53901 1-114)
chain: MSEEVWNGNQGILSVYVSKARDLPNLNKLDKQNVMLRLRIAHMTRASNTLHRAGQNPVFHYLEKFDITPEIKPLMYVEVYCDRRKKSPLPIGRCEIDLLNAIRADPKEGYCTWY
binding: binds
